Measured values published in patent US9884126B2, “Anti-wall teichoic antibodies and conjugates” (priority 2013, dated 2018).
At least one compound was matched to its structure with a doubt left.

Test system: MRSA (NRS384 strain of USA300)
Experiment: MIC determination / killing of intracellular bacteria in mouse peritoneal macrophages
Format: cell-based, Staphylococcus aureus
Conditions: doses including clinically achieveable serum levels

CO[C@H]1/C=C/O[C@@]2(C)Oc3c(C)c(O)c4c(O)c(c(/C=N/N5CCN(C)CC5)c(O)c4c3C2=O)NC(=O)/C(C)=C\C=C\[C@H](C)[C@H](O)[C@@H](C)[C@@H](O)[C@@H](C)[C@H](OC(C)=O)[C@@H]1C [Rifampicin]
killing of intracellular MRSA sequestered inside macrophages: failed to kill
